The results in this text go back to patent publication US20220259298A1 (KYOTO UNIVERSITY, published 2022).

Chains of the proteins cited; added tags and fusions are not shown. Residues count along the entry.
UniProt Q6X4U4, residues 24-206: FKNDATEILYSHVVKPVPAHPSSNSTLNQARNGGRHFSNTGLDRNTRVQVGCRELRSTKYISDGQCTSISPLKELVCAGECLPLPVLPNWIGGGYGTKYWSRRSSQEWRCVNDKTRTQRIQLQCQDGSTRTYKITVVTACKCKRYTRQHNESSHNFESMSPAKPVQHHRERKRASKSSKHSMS

In assay [1] the target is N-terminal PA-tagged human USAG-1 (WISE) recombinant protein (human) (UniProt Q6X4U4). Nature of the assay: pull-down: antibody on Protein A sepharose, Expi293F supernatant with PA-tagged USAG-1, SDS-PAGE.
The target is the same in assay [2]. Put plainly: pull-down: antibody on Protein A sepharose, Expi293F supernatant with PA-tagged USAG-1, SDS-PAGE and CBB staining.

Results are given in words; binding and its absence hold for the method and conditions named. Binding seen in cells or lysates may run through a third protein. Some entries that bind do so weakly or less than the wild type.

B1: mouse anti-USAG-1 neutralizing antibody B (E57) (antibody, mouse IgG1, kappa, V domains shown)
VH: EVQLQQSGPELVKPGASVKISCKTSGYSFTGYYMSWVKQSPEKSLEWIGEINPTTGGSTYNQKFKAKATLTVDKSSSTAYMQLKSLTSEDSAVYYCAREGYYSGISYDAMDYWGQGTSVTVSS
VL: DIQMTQTTSSLSASLGDRVTISCRASQDISNYLSWYQQKPDGTVKLLIYYTSRLHSGVPSRFSGSGSGTDYSLTISNLEQEDIATYFCQQGNTLPRTFGGGTKLEIKR
B1: in assay [1], the binding result is on record as “binds”.

B2: mouse anti-USAG-1 neutralizing antibody E (B103) (antibody, mouse IgG1, kappa, V domains shown)
VH: DVQLQESGPGLVKPSQSLSLTCSVTGYSITSGYYWNWIRQFPGNKLEWMGCISYDGSNNYNPSLKNRISITRDTSKNQFFLKLNSVTTEDTATYYCARGGLLWGQGTTLTVSS
VL: DIQMTQSPSSLSASLGERVSLTCRASQEISGYLSWLQQKPDGNIKRLIYAASTLDSGVPKRFSGSRSGSDYSLTISRLESEDFADYYCLQYASYPWTFGGGTKLEIKR
notes: Raised against baculovirus-derived rat USAG-1
Turning to B2, in assay [2], the binding entry was “binds”.

B3: mouse anti-USAG-1 neutralizing antibody A (E37) (antibody, mouse IgG1, kappa, V domains shown)
VH: QVQLQQSDAELVNPGASVKISCKVSGYTFTDHTIHWMKQRPEQGLEWIGYIYPGDGSTKYNEKFKGKATLTADKSSSTAYMQLNSLTSEDSAVYFCARTETYYGRIYYYAMDYWGQGTSVTVSS
VL: QIVLSQSPAILSASPGEKVTMTCRASSSVSYMYWYQQKPGSSPKPWIYATSNLASGVPIRFSGSGSGTSYSLTISRVEAEDAATYYCQQWSSNLTFGAGTKLELKR
In the case of B3, the binding result in assay [1] was “binds”.

B4: mouse anti-USAG-1 neutralizing antibody C (B14) (antibody, V domains shown)
VH: EVQLQQSGPELVKPGASVKISCKASGYSFTGYYMNWVKQSPEKSLEWIGEINPTTGGTTYNQKFKAKATLTVDKSSSTAYMQLKSLTSEDSAVYYCARLHYDYDGVGYAMDYWGQGTSVTVSS
VL: DIVMTQSHKFMSTSVGDRVSITCKASQDVSTAVAWYQQKPGQSPKLLIYSASYRYTGVPARFTGSGSGTDFTFTISSVQAEDLAVYYCQQHYSTPPTFGGGTKLEIKR
notes: as for B2
With B4, in assay [2], the binding result is “binds”.
